In the supplement of paper PMC6078165:
Values are relative to the signal before dosing, not to a vehicle control; the signal also falls without drug.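 Fibroblast labels denote human fibroblasts, mainly primary ones from uterus (C12385, HUF), lung (H6013), bone (Hs27A), adrenal (HADF) and skin (WS1), plus mammary HMF and breast cancer-associated Hs343T. Cancer cells are basal-like or mesenchymal-like triple-negative breast cancer lines. A hit is a response shift exceeding 3x replicate standard deviation. The tissue of the other fibroblasts is not given here.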

Test system: MDAMB468
Experiment: relative JC-1 red fluorescence (viability) vs pre-drug, coculture with fibroblast (fraction); higher = more viable cancer cells
Experimental: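 JC-1 labelled TNBC cells cocultured 1:1 (1,500 cells each) with CellTrace Violet stained primary or stromal fibroblasts in 384-well plates in FluoroBrite medium, treated with one of 42 anticancer drugs at 0.1, 1, 10 or 100 uM. JC-1 red fluorescence (mitochondrial integrity in cancer cells only) was read by plate reader every 8 h for 72 h. Values are normalised to each well's pre-drug value. The stock of one drug was tenfold lower, so its dose labels may be too high.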

O=C1c2c(O)ccc(O)c2C(=O)c2c(NCCNCCO)ccc(NCCNCCO)c21 [Mitoxantrone]
relative JC-1 red fluorescence
Conditions | 8 h | 16 h | 24 h | 32 h | 40 h | 48 h | 56 h | 64 h | 72 h
0.1 µM, coculture fibroblast: C12385 | 0.846 | 0.816 | 0.7504 | 0.689 | 0.643 | 0.616 | 0.58 | 0.548 | 0.527
0.1 µM, coculture fibroblast: H6013 | 0.8128 | 0.73036 | 0.709 | 0.711 | 0.696 | 0.711 | 0.694 | 0.684 | 0.635
0.1 µM, coculture fibroblast: H6019 | 0.847 | 0.771 | 0.746 | 0.702 | 0.679 | 0.657 | 0.618 | 0.589 | 0.57
0.1 µM, coculture fibroblast: H6076 | 0.8567 | 0.839 | 0.747 | 0.77 | 0.72 | 0.722 | 0.7 | 0.691 | 0.742
0.1 µM, coculture fibroblast: H6231 | 0.738 | 0.858 | 0.798 | 0.767 | 0.749 | 0.724 | 0.684 | 0.667 | 0.66
0.1 µM, coculture fibroblast: HADF | 0.816 | 0.775 | 0.694 | 0.682 | 0.626 | 0.611 | 0.581 | 0.57 | 0.531
0.1 µM, coculture fibroblast: HCFa | 0.7804 | 0.7056 | 0.66 | 0.631 | 0.568 | 0.555 | 0.519 | 0.491 | 0.444
0.1 µM, coculture fibroblast: HCPF | 0.7706 | 0.811 | 0.7058 | 0.698 | 0.655 | 0.638 | 0.608 | 0.603 | 0.597
0.1 µM, coculture fibroblast: HHSteC | 0.8257 | 0.7462 | 0.6831 | 0.66 | 0.62 | 0.628 | 0.576 | 0.556 | 0.502
0.1 µM, coculture fibroblast: HMF | 0.757 | 0.7721 | 0.697 | 0.704 | 0.656 | 0.65 | 0.6233 | 0.62179 | 0.628
0.1 µM, coculture fibroblast: HPFa | 0.901 | 0.887 | 0.821 | 0.779 | 0.7406 | 0.732 | 0.683 | 0.666 | 0.584
0.1 µM, coculture fibroblast: HUF | 0.856 | 0.7649 | 0.711 | 0.645 | 0.602 | 0.574 | 0.535 | 0.508 | 0.484
0.1 µM, coculture fibroblast: Hs5 | 0.811 | 0.905 | 0.819 | 0.735 | 0.857 | 0.833 | 0.799 | 0.786 | 0.778
0.1 µM, coculture fibroblast: Hs27A | 0.7789 | 0.7071 | 0.672 | 0.684 | 0.64 | 0.637 | 0.626 | 0.619 | 0.591
0.1 µM, coculture fibroblast: Hs343T | 0.815 | 0.832 | 0.741 | 0.745 | 0.69 | 0.692 | 0.641 | 0.6404 | 0.645
0.1 µM, coculture fibroblast: WS1 | 0.8617 | 0.793 | 0.736 | 0.667 | 0.627 | 0.588 | 0.563 | 0.547 | 0.528
1 µM, coculture fibroblast: C12385 | 0.616 | 0.57 | 0.638 | 0.6562 | 0.633 | 0.641 | 0.598 | 0.5715 | 0.562
1 µM, coculture fibroblast: H6013 | 0.417 | 0.435 | 0.47 | 0.487 | 0.5 | 0.4818 | 0.445 | 0.42 | 0.346
1 µM, coculture fibroblast: H6019 | 0.616 | 0.5531 | 0.547 | 0.517 | 0.493 | 0.49 | 0.459 | 0.448 | 0.433
1 µM, coculture fibroblast: H6076 | 0.522 | 0.473 | 0.505 | 0.553 | 0.477 | 0.46 | 0.424 | 0.394 | 0.424
1 µM, coculture fibroblast: H6231 | 0.442 | 0.411 | 0.479 | 0.571 | 0.49 | 0.4702 | 0.417 | 0.3945 | 0.3991
1 µM, coculture fibroblast: HADF | 0.404 | 0.428 | 0.4641 | 0.5011 | 0.5294 | 0.5181 | 0.488 | 0.467 | 0.389
1 µM, coculture fibroblast: HCFa | 0.473 | 0.485 | 0.515 | 0.555 | 0.589 | 0.596 | 0.564 | 0.528 | 0.455
1 µM, coculture fibroblast: HCPF | 0.469 | 0.471 | 0.529 | 0.588 | 0.505 | 0.479 | 0.437 | 0.416 | 0.411
1 µM, coculture fibroblast: HHSteC | 0.457 | 0.493 | 0.551 | 0.58 | 0.602 | 0.593 | 0.531 | 0.503 | 0.423
1 µM, coculture fibroblast: HMF | 0.49 | 0.517 | 0.573 | 0.603 | 0.533 | 0.509 | 0.474 | 0.457 | 0.463
1 µM, coculture fibroblast: HPFa | 0.491 | 0.476 | 0.546 | 0.563 | 0.59 | 0.589 | 0.536 | 0.513 | 0.43
1 µM, coculture fibroblast: HUF | 0.667 | 0.618 | 0.635 | 0.641 | 0.6 | 0.593 | 0.548 | 0.524 | 0.5
1 µM, coculture fibroblast: Hs5 | 0.583 | 0.618 | 0.793 | 0.836 | 0.745 | 0.7 | 0.656 | 0.615 | 0.651
1 µM, coculture fibroblast: Hs27A | 0.448 | 0.463 | 0.469 | 0.491 | 0.486 | 0.472 | 0.443 | 0.418 | 0.348
1 µM, coculture fibroblast: Hs343T | 0.474 | 0.479 | 0.538 | 0.584 | 0.5 | 0.476 | 0.446 | 0.421 | 0.418
1 µM, coculture fibroblast: WS1 | 0.548 | 0.493 | 0.504 | 0.498 | 0.47 | 0.458 | 0.427 | 0.402 | 0.389
10 µM, coculture fibroblast: C12385 | 0.873 | 0.9 | 0.783 | 0.674 | 0.612 | 0.613 | 0.529 | 0.438 | 0.389
10 µM, coculture fibroblast: H6013 | 0.547 | 0.661 | 0.539 | 0.523 | 0.476 | 0.444 | 0.365 | 0.299 | 0.171
10 µM, coculture fibroblast: H6019 | 0.741 | 0.837 | 0.696 | 0.655 | 0.568 | 0.547 | 0.475 | 0.422 | 0.386
10 µM, coculture fibroblast: H6076 | 0.548 | 0.614 | 0.682 | 0.733 | 0.609 | 0.57 | 0.491 | 0.44 | 0.484
10 µM, coculture fibroblast: H6231 | 0.357 | 0.498 | 0.455 | 0.468 | 0.353 | 0.321 | 0.267 | 0.239 | 0.235
10 µM, coculture fibroblast: HADF | 0.3778 | 0.406 | 0.311 | 0.3077 | 0.312 | 0.31 | 0.266 | 0.239 | 0.1551
10 µM, coculture fibroblast: HCFa | 0.426 | 0.436 | 0.365 | 0.424 | 0.43 | 0.437 | 0.392 | 0.316 | 0.209
10 µM, coculture fibroblast: HCPF | 0.591 | 0.671 | 0.722 | 0.772 | 0.692 | 0.67 | 0.639 | 0.629 | 0.637
10 µM, coculture fibroblast: HHSteC | 0.505 | 0.64902 | 0.543 | 0.503 | 0.437 | 0.408 | 0.325 | 0.264 | 0.165
10 µM, coculture fibroblast: HMF | 0.73 | 0.757 | 0.733 | 0.75 | 0.697 | 0.704 | 0.686 | 0.691 | 0.697
10 µM, coculture fibroblast: HPFa | 0.429 | 0.422 | 0.297 | 0.273 | 0.279 | 0.306 | 0.268 | 0.243 | 0.164
10 µM, coculture fibroblast: HUF | 0.878 | 0.771 | 0.542 | 0.503 | 0.481 | 0.492 | 0.432 | 0.391 | 0.33
10 µM, coculture fibroblast: Hs5 | 0.659 | 0.737 | 0.701 | 0.528 | 0.422 | 0.358 | 0.296 | 0.232 | 0.22
10 µM, coculture fibroblast: Hs27A | 0.348 | 0.296 | 0.319 | 0.326 | 0.306 | 0.292 | 0.258 | 0.232 | 0.156
10 µM, coculture fibroblast: Hs343T | 0.662 | 0.662 | 0.717 | 0.751 | 0.674 | 0.66 | 0.624 | 0.621 | 0.629
10 µM, coculture fibroblast: WS1 | 0.84 | 0.79 | 0.797 | 0.685 | 0.556 | 0.49 | 0.417 | 0.334 | 0.277
